Assay results as given in patent publication US11161864B2, “Sting agonists” (Venenum Biodesign, LLC, priority 2018, dated 2021).
At least one structure is not confirmed: it was looked up by name or label, or the drawing left a doubt.

System: MB49-luc tumor
Assay: Orthotopically implanted MB49-luc tumor bearing mice, intravesical instillation
Conditions: 25, 50, 100 μg intravesical instillation Days 4, 7, 11; Mantel-Cox log-rank test

Q: For `Nc1nc2c(ncn2[C@@H]2O[C@@H]3COP(=O)(S)OCCn4c(nc5cncnc54)COP(=O)(S)O[C@@H]2[C@@H]3F)c(=O)[nH]1` (single isomer, unassigned) [Example 1C], which “effect of treatment on survival” value is on record?
A: The value was “significant”.
